Measurements reported in PubChem BioAssay AID2685 (National Center for Advancing Translational Sciences (NCATS), 2010).
This is one part of the list. Further columns of the screen follow, without active or inactive calls. Most of these compounds were active or inconclusive in the main read-out, so they are no random draw. The note in brackets gives the kind of curve behind each potency; many fits are weak.

Test: qHTS Assay for Lipid Storage Modulators in Drosophila S3 Cells;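 as to cell number change: cells counted by Cell Tracker Red CMTPX staining in the red channel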
Conditions: BODIPY lipid droplet fluorescence, 18-24 h; for cell number change: measured here: cell count max response, cells fed with added oleic acid
How it was run: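 Laser-scanning cytometry quantifies lipid droplet accumulation (500–530 nm total intensity; droplet/cell object ratio) in oleic acid-fed (400 uM added) Drosophila S3 cells treated with a concentration series. 20 uM Triacsin C defined 100% inhibition.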

[1] = measured here: cell number channel AC50, cells fed with added oleic acid
[2] = measured here: lipid fluorescence (Fed channel) AC50, cells fed with added oleic acid

| Structure (SMILES) | cell number change [%] | AC50 [1] | AC50 [2] |
| --- | --- | --- | --- |
| O=C(NCC(=O)N1CCN(Cc2ccccc2)CC1)c1ccc(Cl)cc1 | 11.4 |  |  |
| Cc1ccccc1N1CCN(c2ncnc3c2cnn3Cc2ccc(Cl)cc2)CC1 | -43.6 | 0.92 µM [rising, partial curve] |  |
| COc1ccc(CCNC2=C(Cl)C(=O)N(Cc3ccccc3)C2=O)cc1OC | -37.3 | 0.651 µM [falling, full curve] |  |
| CCOCCCNC(=O)C(NC(=O)CC1NC(=O)NC1=O)c1ccc(Cl)cc1 (configuration not stated) | -18.9 |  | 5.17 µM [falling, full curve, poor fit] |
| C=CCNC(=S)N/N=C(\C)c1ccccn1 | 2.98 |  | 0.731 µM [falling, full curve] |
| COC(=O)c1c(C(=O)OC)c(-c2ccccc2)n2c1CS(=O)C2 (configuration not stated) | 9.8 |  |  |
| COc1cccc(NC(=O)CN(C)C(=O)c2cc(-c3ccc(C)o3)nc3ccccc23)c1 | 13.8 |  | 6.51 µM [rising, single point] |
| CCOc1ccc(S(=O)(=O)Nc2ccccc2C(=O)NCc2ccco2)cc1 | -41.5 | 16.4 µM [falling, single point] | 0.58 µM [rising, full curve] |
| COc1ccc(CNC(=O)C2CC(c3cccc([N+](=O)[O-])c3)=NO2)cc1 (configuration not stated) |  |  | 4.11 µM [rising, full curve] |
| CCN(CC(=O)Nc1c(F)cccc1F)C(=O)COc1ccc2c(C)cc(=O)oc2c1 |  |  | 6.51 µM [rising, single point] |
| COc1ccc(C)cc1-n1c(SCC(=O)NCC2CCCO2)nc2c([nH]c3ccccc32)c1=O (configuration not stated) | -13.6 |  | 29.1 µM [rising, single point] |
| Oc1c(N=Nc2ccccn2)ccc2ccccc12 | -95.5 | 5.17 µM [falling, full curve] | 3.66 µM [falling, full curve] |
| CNC(C)C#Cc1ccc2sc3cccc(OC)c3c(=O)c2c1 (configuration not stated) | -4.49 |  | 6.51 µM [rising, single point] |
| COc1ccc(OC)c2c(C)cc(N3CCN(C(=O)c4ccc(Cl)cc4)CC3)nc12 | 42.2 |  |  |
| Cc1cc2ccccc2n2c(SCC(=O)N3CCN(C(=O)c4ccco4)CC3)nnc12 | -8.9 |  |  |
| CCC(=O)Nc1cccc(C2=NOC3(C2)C[C@@H](C(N)=O)N(C(=O)COc2ccc(Cl)cc2)C3)c1 (some centres not stated) | 22.4 |  | 14.6 µM [rising, partial curve, poor fit] |
| O=C(Nc1nc(=S)ss1)c1ccc(Cl)cc1Cl | -22.1 | 0.231 µM [falling, full curve, poor fit] |  |
| Cc1c(NC(=O)c2ccc([N+](=O)[O-])o2)cccc1-c1nc2ncccc2o1 | -1.32 |  | 5.62 µM [rising, single point] |

Some entries already given, showing only AC50 [1] and AC50 [2].
Structure (SMILES),AC50 [1],AC50 [2]
Cc1ccccc1N1CCN(c2ncnc3c2cnn3Cc2ccc(Cl)cc2)CC1,"0.92 µM [rising, partial curve]",
COc1ccc(CCNC2=C(Cl)C(=O)N(Cc3ccccc3)C2=O)cc1OC,"0.651 µM [falling, full curve]",
